Results published in patent US11253499B2, “Compounds” (priority 2017, dated 2022).
Some entries share one result that the patent states for a list of compounds.

Legend:
[1] = tested on: M. tuberculosis W4-E1-GFP (Mutant); type: cell-based, Mycobacterium tuberculosis; details: read-out: average EC50_Mutant
[2] = tested on: M. tuberculosis H37Rv-GFP; type: cell-based, Mycobacterium tuberculosis; details: average; potentiation of ethionamide; ETH 0.1 μg/ml; […]; read-out: average EC50_H37Rv

`O=C(CCC(F)(F)F)N1CC(c2cccc(Cl)c2)C1` [Example 17, 1-[3-(3-chlorophenyl)azetidin-1-yl]-4,4,4-trifluoro-butan-1-one] was tested, and the EC50 [1] was < 75 nM.

In the case of `O=C(CCC(F)(F)F)N1CC(c2cc(F)c(F)c(F)c2)C1` [Example 34, 4,4,4-trifluoro-1-[3-(3,4,5-trifluorophenyl)azetidin-1-yl]butan-1-one], the EC50 [1] is reported as < 75 nM.

`O=C(CCC(F)(F)F)N1CC(C2CCCCC2)C1` [Example 6, 1-(3-cyclohexylazetidin-1-yl)-4,4,4-trifluoro-butan-1-one] was tested, and the EC50 [1] was < 75 nM and the EC50 [2] was ≤ 10 nM.

In the case of `O=C(CCC(F)(F)F)N1CC(c2ccc(F)cc2F)C1` [Example 18, 1-[3-(2,4-difluorophenyl)azetidin-1-yl]-4,4,4-trifluoro-butan-1-one], the EC50 [1] is reported as < 75 nM.
